Reference: PMC12199419
No constants are given. Whether binding was seen depends on the method and setting. In cells and extracts the contact can be indirect. Some results given as binding are weak or reduced against the parent protein; the word gives no strength.

Sequences of proteins named here, by UniProt entry; tags and fusion partners are left off.
UniProt P46938: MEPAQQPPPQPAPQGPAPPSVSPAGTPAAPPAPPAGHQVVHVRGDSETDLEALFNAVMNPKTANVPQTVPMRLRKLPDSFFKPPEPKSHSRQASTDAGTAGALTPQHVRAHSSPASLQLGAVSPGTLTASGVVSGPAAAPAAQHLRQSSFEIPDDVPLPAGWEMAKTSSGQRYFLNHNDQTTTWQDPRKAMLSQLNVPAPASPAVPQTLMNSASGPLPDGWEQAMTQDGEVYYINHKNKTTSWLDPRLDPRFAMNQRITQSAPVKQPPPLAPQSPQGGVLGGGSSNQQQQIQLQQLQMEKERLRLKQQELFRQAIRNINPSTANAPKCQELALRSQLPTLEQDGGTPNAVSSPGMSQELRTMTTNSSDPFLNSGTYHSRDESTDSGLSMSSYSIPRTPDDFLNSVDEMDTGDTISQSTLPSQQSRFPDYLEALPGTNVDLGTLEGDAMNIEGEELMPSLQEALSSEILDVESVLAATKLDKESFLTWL
UniProt Q8K1S5: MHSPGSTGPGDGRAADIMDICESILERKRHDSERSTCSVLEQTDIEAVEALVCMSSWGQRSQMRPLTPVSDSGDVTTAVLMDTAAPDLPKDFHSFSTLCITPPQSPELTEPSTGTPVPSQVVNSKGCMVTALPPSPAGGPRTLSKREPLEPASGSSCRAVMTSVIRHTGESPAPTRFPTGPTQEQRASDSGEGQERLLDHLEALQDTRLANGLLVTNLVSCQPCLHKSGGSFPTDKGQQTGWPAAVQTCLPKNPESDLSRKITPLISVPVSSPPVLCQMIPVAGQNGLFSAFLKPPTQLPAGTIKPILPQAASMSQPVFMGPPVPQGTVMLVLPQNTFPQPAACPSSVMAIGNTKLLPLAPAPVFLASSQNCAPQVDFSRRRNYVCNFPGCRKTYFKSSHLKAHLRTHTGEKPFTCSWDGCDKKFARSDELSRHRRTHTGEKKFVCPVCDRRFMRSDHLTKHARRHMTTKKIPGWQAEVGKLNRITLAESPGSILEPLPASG

Columns and labels:
PPARα = molecular target: T1, PPARα (UniProt P23204); assay: co-IP; cell lysates with control or specific antibodies (anti-KLF11, anti-PPARα, anti-YAP1, anti-IgG) for 12 h at 4 °C, protein A/G agarose beads, SDS-PAGE and immunoblotting; the section heading says that wogonin promoted the interaction
T1 sequence: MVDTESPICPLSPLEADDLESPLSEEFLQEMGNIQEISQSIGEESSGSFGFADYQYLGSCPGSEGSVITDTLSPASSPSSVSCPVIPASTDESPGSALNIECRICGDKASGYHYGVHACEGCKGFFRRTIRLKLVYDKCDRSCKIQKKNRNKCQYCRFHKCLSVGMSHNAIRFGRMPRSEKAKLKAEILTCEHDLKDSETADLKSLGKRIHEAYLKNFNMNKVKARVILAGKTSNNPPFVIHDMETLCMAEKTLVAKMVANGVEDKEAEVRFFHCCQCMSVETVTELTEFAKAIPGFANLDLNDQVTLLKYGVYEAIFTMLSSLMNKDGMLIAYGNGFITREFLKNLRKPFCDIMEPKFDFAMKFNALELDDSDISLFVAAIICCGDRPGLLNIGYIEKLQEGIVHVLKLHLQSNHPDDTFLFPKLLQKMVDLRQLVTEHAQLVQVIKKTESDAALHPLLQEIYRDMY

YAP1 = YAP1 (UniProt P46938); assay: as above

Substance	binding (PPARα)	binding (YAP1)
KLF11 (from UniProt Q8K1S5 1-502)	binds	binds
YAP1 (from UniProt P46938 1-488)	binds	
